No constants are given. Whether binding was seen depends on the method and setting. In cells and extracts the contact can be indirect. Some binding calls cover weakened binding; strength is not graded here.
Legend:
[1] = target: Amyloid-β (1-42) peptide, unlabeled (UniProt P05067); assay: co-IP; 500 μg HT-22 lysate, mouse anti-Aβ antibody on protein A/G PLUS-Agarose, 0.25 μM Aβ(1-42) added for 1 h at 4 °C, absence or presence of Ca^2+; Western blot with anti-STIM1; only the target purified
[2] = target: Amyloid-β (1-42) peptide, unlabeled (UniProt P05067); assay: co-IP; as a1 in the presence of Ca^2+, lysate previously incubated for 30 min with 1 μM peptide … (C-terminal amide); Western blot with anti-STIM1; only the target purified

By UniProt entry, the sequences of proteins in these tests, tags left out. Residues count along the entry.
UniProt P05067, residues 672-713: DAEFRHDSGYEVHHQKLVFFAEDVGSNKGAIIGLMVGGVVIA
UniProt P70302, residues 23-685: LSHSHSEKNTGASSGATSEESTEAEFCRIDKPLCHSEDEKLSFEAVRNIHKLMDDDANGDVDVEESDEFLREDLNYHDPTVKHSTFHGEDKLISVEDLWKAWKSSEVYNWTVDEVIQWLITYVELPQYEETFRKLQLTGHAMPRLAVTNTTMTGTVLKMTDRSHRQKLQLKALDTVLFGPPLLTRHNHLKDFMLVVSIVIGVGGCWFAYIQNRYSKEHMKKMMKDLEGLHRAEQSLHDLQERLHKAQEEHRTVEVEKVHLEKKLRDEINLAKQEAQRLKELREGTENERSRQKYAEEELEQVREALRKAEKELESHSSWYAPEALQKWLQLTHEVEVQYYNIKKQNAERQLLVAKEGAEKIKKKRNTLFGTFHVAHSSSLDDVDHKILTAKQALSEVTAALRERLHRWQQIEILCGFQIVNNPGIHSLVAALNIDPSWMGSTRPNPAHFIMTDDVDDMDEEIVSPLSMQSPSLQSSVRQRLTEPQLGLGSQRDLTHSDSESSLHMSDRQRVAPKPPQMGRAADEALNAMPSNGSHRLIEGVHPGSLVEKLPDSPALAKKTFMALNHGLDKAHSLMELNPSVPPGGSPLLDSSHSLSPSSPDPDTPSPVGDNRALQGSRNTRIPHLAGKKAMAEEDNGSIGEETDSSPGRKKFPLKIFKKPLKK

Stromal interaction molecule 1 (STIM1), endogenous in HT-22 cells (from UniProt P70302 23-685)
binding [1]: binds
binding [2]: binds

Reference: publication PMC9604325
